The list shows a part of the results.
compound: C1COCCN1CCN2C3=CC=CC=C3N=C2NC(=O)C4=CC(=CC=C4)[N+](=O)[O-] [IRAK-1-4 Inhibitor I]; assay: log2 fold change, soluble protein after heating vs DMSO (PISA); higher = thermal stabilisation; K562 cells, 10 uM, 30 min; active = over 0.2 and 3.5 SD of the protein, either way, in both replicates (recomputed)
Method in brief: (§1)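 Soluble protein was quantified by TMTpro 16plex LC-MS/MS after channel sums were equalised. It was obtained as the supernatant after 21,000xg for 90 min from pooled aliquots of K562 cells (2×10^6 cells/mL, 10 μM compound, 30 min) heated for 3 min across 48°C-58°C and extracted in PBS with 0.5% NP-40 at 4°C. Thermal stability values are relative to control samples and come from duplicates. They are given as log2 fold changes.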

Sequences of proteins named here, by UniProt entry; tags and fusion partners are left off. A change or cut given only in a name is not applied to a line headed by its entry.
UniProt Q08345: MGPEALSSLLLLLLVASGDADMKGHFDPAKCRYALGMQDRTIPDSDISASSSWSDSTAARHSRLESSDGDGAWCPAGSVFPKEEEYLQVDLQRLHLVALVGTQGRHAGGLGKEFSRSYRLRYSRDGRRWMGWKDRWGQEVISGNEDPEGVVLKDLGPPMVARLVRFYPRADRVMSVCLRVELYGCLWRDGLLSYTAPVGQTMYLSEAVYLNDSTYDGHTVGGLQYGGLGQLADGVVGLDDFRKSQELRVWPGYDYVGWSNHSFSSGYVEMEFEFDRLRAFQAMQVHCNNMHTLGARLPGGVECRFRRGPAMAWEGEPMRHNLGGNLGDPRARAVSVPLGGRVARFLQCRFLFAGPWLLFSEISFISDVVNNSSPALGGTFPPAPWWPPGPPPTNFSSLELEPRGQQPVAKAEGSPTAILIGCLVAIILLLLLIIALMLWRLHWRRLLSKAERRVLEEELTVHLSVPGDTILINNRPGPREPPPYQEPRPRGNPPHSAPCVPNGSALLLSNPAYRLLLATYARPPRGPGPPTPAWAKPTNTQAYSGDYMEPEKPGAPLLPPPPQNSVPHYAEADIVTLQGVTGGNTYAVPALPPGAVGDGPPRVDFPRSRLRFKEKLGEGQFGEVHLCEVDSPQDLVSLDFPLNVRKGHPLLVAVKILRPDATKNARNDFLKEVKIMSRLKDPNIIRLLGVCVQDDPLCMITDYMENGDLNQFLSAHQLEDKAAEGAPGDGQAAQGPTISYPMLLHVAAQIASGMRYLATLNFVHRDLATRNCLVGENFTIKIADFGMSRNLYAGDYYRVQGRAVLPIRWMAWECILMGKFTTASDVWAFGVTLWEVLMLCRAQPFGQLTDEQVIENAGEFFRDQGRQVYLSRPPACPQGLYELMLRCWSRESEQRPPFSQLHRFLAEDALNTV
UniProt Q14147: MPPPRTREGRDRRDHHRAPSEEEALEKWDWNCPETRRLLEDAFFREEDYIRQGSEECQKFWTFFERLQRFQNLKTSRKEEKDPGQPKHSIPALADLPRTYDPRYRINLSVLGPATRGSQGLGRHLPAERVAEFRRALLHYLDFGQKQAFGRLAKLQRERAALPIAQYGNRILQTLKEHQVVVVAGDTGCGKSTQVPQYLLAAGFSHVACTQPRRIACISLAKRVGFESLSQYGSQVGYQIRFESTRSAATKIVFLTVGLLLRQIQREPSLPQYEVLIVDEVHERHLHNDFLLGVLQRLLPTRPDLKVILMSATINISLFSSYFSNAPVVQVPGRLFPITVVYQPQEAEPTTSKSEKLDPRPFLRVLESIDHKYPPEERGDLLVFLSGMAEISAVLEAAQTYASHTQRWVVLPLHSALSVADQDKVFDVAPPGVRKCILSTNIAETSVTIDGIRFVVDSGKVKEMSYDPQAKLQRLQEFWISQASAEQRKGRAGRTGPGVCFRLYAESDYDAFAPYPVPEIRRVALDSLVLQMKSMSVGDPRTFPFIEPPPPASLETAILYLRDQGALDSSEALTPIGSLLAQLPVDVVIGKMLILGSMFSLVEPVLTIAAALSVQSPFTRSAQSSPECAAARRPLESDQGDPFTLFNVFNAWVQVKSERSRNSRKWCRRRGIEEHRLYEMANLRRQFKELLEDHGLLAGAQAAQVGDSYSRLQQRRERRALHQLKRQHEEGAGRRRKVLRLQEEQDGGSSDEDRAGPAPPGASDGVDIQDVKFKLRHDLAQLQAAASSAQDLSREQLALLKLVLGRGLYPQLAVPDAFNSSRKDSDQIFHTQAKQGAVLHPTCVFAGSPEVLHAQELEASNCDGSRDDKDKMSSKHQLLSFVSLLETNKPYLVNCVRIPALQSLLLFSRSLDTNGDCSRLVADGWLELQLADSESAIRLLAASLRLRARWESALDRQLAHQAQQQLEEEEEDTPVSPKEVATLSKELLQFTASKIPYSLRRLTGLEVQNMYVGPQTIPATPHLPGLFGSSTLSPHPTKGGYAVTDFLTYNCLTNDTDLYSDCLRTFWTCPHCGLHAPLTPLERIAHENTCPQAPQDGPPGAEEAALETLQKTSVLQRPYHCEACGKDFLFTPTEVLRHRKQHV
UniProt Q9H4E7, whole entry, looked up: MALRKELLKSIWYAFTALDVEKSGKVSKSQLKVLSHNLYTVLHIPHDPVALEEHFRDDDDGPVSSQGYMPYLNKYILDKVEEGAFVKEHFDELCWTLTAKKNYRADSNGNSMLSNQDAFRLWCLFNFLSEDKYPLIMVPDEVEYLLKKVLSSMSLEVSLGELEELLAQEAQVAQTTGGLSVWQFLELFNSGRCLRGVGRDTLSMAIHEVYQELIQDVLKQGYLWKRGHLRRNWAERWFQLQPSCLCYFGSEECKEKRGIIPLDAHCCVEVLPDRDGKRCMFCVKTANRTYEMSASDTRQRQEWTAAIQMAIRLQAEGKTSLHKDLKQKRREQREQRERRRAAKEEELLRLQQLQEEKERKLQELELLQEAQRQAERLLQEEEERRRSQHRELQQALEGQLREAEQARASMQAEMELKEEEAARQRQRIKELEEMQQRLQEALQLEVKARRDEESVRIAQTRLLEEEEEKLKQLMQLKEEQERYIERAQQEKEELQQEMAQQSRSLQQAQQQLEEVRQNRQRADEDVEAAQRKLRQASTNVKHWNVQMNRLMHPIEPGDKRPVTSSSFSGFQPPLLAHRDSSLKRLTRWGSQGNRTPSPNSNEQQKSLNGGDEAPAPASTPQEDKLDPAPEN
UniProt Q96GQ7: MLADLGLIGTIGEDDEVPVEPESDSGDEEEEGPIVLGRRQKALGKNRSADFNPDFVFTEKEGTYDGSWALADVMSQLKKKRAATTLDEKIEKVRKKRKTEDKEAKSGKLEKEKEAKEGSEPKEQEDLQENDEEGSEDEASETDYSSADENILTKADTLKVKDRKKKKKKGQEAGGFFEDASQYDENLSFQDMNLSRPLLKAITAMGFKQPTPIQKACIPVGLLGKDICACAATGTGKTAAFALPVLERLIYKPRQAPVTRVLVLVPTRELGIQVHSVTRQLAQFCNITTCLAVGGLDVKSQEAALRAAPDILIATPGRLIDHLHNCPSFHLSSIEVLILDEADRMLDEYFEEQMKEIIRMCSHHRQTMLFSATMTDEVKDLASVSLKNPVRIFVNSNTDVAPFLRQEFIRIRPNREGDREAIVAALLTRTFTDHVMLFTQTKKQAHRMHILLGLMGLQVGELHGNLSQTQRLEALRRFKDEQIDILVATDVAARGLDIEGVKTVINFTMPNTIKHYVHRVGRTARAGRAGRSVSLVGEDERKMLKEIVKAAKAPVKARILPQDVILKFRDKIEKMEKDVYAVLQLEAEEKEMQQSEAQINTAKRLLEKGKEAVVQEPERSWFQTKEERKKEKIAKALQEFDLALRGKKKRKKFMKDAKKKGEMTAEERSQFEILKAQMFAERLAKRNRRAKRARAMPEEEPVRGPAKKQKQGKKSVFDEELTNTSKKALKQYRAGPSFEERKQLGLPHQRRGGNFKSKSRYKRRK
UniProt Q6UX07: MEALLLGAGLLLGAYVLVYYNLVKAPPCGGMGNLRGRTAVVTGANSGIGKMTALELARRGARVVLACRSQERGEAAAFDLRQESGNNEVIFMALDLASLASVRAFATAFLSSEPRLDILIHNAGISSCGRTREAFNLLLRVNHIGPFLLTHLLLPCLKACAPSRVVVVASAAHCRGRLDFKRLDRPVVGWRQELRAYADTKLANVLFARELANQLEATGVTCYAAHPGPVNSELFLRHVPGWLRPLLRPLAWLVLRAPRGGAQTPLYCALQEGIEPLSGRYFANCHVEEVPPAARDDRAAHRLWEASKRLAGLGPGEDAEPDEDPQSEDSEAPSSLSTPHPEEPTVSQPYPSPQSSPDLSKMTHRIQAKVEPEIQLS
UniProt Q8TCE6, whole entry, looked up: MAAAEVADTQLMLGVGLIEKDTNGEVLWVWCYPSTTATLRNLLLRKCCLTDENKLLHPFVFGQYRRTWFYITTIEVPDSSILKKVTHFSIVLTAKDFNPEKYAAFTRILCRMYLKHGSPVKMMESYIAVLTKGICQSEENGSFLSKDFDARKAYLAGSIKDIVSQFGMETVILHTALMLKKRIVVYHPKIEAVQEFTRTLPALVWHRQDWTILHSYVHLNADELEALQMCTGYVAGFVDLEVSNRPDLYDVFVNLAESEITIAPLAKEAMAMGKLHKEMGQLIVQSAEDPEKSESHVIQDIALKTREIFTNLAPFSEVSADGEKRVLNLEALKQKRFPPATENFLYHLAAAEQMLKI
UniProt Q9UPY3: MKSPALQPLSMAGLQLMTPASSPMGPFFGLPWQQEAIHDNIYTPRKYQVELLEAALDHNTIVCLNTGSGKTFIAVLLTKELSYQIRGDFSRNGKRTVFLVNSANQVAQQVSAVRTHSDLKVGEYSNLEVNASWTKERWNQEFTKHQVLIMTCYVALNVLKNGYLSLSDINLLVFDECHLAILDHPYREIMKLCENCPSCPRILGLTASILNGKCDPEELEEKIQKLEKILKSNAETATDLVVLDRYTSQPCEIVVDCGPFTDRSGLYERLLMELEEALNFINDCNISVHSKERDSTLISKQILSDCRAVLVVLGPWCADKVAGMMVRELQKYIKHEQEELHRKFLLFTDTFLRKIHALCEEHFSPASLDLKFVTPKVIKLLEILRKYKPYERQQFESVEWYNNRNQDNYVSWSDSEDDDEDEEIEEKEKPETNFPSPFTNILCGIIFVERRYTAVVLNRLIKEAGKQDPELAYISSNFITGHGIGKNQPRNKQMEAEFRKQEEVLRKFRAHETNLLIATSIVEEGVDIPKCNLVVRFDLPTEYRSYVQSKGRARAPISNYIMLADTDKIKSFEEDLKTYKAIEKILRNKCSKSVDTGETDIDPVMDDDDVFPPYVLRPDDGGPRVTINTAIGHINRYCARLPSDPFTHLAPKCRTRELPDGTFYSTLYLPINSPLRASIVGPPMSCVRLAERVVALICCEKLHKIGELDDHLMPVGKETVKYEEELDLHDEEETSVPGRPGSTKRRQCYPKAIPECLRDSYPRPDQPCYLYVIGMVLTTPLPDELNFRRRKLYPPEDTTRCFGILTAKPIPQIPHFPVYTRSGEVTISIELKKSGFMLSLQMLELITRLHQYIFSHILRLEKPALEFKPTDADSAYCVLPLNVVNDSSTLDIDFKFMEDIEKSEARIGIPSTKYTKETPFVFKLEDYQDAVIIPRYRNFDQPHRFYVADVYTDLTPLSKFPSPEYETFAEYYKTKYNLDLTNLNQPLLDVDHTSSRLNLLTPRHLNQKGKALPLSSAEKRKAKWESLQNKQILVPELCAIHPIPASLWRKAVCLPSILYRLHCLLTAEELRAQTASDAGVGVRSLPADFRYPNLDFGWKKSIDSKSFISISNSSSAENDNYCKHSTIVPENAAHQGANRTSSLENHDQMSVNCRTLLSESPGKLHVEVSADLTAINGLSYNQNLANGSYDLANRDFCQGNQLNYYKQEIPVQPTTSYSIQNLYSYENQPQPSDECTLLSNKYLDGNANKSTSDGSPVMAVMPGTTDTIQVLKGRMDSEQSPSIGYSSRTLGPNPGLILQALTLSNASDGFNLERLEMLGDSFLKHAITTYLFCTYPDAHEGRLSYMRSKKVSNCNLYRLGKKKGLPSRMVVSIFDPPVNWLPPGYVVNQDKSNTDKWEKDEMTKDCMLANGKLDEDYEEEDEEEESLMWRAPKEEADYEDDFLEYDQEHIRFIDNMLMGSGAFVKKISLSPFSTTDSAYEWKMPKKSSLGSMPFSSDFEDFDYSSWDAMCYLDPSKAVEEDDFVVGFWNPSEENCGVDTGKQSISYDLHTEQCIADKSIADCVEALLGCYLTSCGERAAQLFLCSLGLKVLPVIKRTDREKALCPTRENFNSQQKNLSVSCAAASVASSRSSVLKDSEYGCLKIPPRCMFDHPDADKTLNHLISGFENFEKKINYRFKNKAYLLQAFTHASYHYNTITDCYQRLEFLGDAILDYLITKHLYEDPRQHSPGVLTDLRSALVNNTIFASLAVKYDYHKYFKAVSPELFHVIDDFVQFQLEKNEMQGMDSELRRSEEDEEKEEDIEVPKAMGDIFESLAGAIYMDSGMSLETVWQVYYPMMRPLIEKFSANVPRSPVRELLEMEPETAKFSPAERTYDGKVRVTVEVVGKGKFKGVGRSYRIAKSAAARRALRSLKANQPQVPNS
UniProt Q6ICB0: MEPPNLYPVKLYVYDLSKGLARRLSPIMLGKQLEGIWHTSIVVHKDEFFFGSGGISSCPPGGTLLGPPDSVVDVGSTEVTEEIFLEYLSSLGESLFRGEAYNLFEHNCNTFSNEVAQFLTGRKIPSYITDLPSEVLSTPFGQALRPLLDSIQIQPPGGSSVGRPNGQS
UniProt O15121: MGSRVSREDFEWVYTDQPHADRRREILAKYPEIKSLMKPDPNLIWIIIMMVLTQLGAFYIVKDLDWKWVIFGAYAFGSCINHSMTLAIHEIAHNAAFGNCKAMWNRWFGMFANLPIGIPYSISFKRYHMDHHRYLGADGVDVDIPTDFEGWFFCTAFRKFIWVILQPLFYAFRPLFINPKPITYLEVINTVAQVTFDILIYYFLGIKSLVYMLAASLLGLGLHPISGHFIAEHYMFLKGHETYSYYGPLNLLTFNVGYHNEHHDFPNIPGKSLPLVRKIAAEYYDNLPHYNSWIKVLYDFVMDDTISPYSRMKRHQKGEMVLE

Target	log2 fold change
DDR1 isoform 5 (UniProt Q08345)	inactive: 0.153
DLK1 (UniProt P80370)	inactive: 0.023
DEPDC5 (UniProt O75140)	inactive: -0.22
DIDO1 (UniProt Q9BTC0)	inactive: -0.052
DHX34 (UniProt Q14147)	inactive: 0.019
DDX24 (UniProt Q9GZR7)	inactive: -0.2
DDX18 (UniProt Q9NVP1)	inactive: 0.175
DLC1 (UniProt Q96QB1)	inactive: 0.075
DEF6 (UniProt Q9H4E7)	inactive: 0.108
DDX27 (UniProt Q96GQ7)	inactive: -0.037
DIS3L (UniProt Q8TF46)	inactive: -0.114
DET1 isoform 2 (UniProt Q7L5Y6)	inactive: 0.04
DHRS13 (UniProt Q6UX07)	inactive: -0.275

compound: C=CC(=O)N1CCC[C@@H](n2nc(-c3ccc(Oc4ccccc4)cc3)c3c(N)ncnc32)C1 [ibrutinib]; assay: as above
Method in brief: as §1

Target	log2 fold change
DDB1 isoform 2 (UniProt Q16531)	inactive: -0.034
DGKA (UniProt P23743)	inactive: 0.135
DMBT1 isoform 6 (UniProt Q9UGM3)	inactive: -0.327
DDX41 (UniProt Q9UJV9)	inactive: 0.057
DENND10 (UniProt Q8TCE6)	inactive: 0.037
DEF8 (UniProt Q6ZN54)	inactive: 0.137
DECR1 (UniProt E5RJD2)	inactive: 0.099
DDAH1 (UniProt O94760)	inactive: -0.062
DDB2 (UniProt Q92466)	inactive: 0.186
DMKN (UniProt Q6E0U4)	inactive: 0.194
DICER1 (UniProt Q9UPY3)	inactive: -0.054
DHPS (UniProt M0R1T2)	inactive: 0.124
DESI1 (UniProt Q6ICB0)	inactive: -0.014
DEGS1 (UniProt O15121)	inactive: 0.049
DDX55 (UniProt Q8NHQ9)	inactive: -0.028
DDX11L8 (UniProt A8MPP1)	inactive: -0.066
DMXL2 isoform 3 (UniProt Q8TDJ6)	inactive: 0.282

compound: CC(=O)c1cnc2ccc(-c3cc(Cl)c(O)c(Cl)c3)nc2c1N[C@H]1CC[C@H](CN(C)C)CC1; assay: as above
Method in brief: as §1

Target	log2 fold change
DDX41 (UniProt Q9UJV9)	inactive: -0.097
DIDO1 (UniProt Q9BTC0)	inactive: 0.085
DMTF1 (UniProt Q9Y222)	inactive: -0.278
DENND10 (UniProt Q8TCE6)	inactive: 0
DEF8 (UniProt Q6ZN54)	inactive: 0.045
DDAH1 (UniProt O94760)	inactive: 0.03
DHX37 (UniProt Q8IY37)	inactive: -0.165
DDB2 (UniProt Q92466)	inactive: -0.044
DDX24 (UniProt Q9GZR7)	inactive: 0.179
DDX18 (UniProt Q9NVP1)	inactive: 0.102
DICER1 (UniProt Q9UPY3)	inactive: 0.102
DESI1 (UniProt Q6ICB0)	inactive: -0.044
DDX27 (UniProt Q96GQ7)	inactive: 0.115
DEGS1 (UniProt O15121)	inactive: 0.066
DIS3L (UniProt Q8TF46)	inactive: -0.011
DHRS13 (UniProt Q6UX07)	inactive: -0.051
DMXL2 isoform 3 (UniProt Q8TDJ6)	inactive: -0.064

compound: CC(C)(C)Cn1c(N)nc2ccc(-c3[nH]c(C(C)(C)C)nc3-c3ccc(F)cc3)nc21 [ralimetinib]; assay: as above
Method in brief: as §1

Target	log2 fold change
DGKA (UniProt P23743)	inactive: -0.304
DDR1 isoform 5 (UniProt Q08345)	inactive: 0.017
DDX41 (UniProt Q9UJV9)	inactive: -0.159
DIDO1 (UniProt Q9BTC0)	inactive: 0.122
DHX34 (UniProt Q14147)	inactive: 0.089
DENND10 (UniProt Q8TCE6)	inactive: -0.003
DDB2 (UniProt Q92466)	inactive: -0.039
DMKN (UniProt Q6E0U4)	inactive: -0.106
DDX24 (UniProt Q9GZR7)	inactive: 0.181
DICER1 (UniProt Q9UPY3)	inactive: 0.168
DEF6 (UniProt Q9H4E7)	inactive: -0.101
DDX27 (UniProt Q96GQ7)	inactive: 0.04
DIS3L (UniProt Q8TF46)	inactive: 0.137
DET1 isoform 2 (UniProt Q7L5Y6)	inactive: -0.048
DHRS13 (UniProt Q6UX07)	inactive: 0.035
DMXL2 isoform 3 (UniProt Q8TDJ6)	inactive: -0.095

compound: CC(C)(O)CC(=O)NCCn1ccc2ncnc(Nc3ccc(Oc4cccc(C(F)(F)F)c4)c(Cl)c3)c21; assay: as above
Method in brief: as §1

Target	log2 fold change
DDB1 isoform 2 (UniProt Q16531)	inactive: 0.078
DGKA (UniProt P23743)	inactive: 0
DMBT1 isoform 6 (UniProt Q9UGM3)	inactive: 0.036
DDR1 isoform 5 (UniProt Q08345)	inactive: 0.054
DDX41 (UniProt Q9UJV9)	inactive: -0.036
DLK1 (UniProt P80370)	inactive: -0.034
DIDO1 (UniProt Q9BTC0)	inactive: -0.102
DHX34 (UniProt Q14147)	inactive: 0.075
DENND10 (UniProt Q8TCE6)	inactive: -0.025
DHX37 (UniProt Q8IY37)	inactive: -0.024
DHX32 (UniProt Q7L7V1)	inactive: 0.031
DDB2 (UniProt Q92466)	inactive: 0.084
DDX24 (UniProt Q9GZR7)	inactive: 0.005
DICER1 (UniProt Q9UPY3)	inactive: 0.039
DHX35 (UniProt Q9H5Z1)	inactive: 0.05
DLC1 (UniProt Q96QB1)	inactive: -0.005
DDX46, A0A0C4DG89	inactive: -0.123
DDX39B (UniProt H0Y400)	inactive: -0.135
DEF6 (UniProt Q9H4E7)	inactive: 0.054
DDX27 (UniProt Q96GQ7)	inactive: 0.106
DEGS1 (UniProt O15121)	inactive: 0.013
DIS3L (UniProt Q8TF46)	inactive: 0.092
DMXL2 isoform 3 (UniProt Q8TDJ6)	inactive: -0.075

Reference: the supplement of paper PMC10849652
